For part of these data: At least one structure is not confirmed: it was looked up by name or label, or the drawing left a doubt. Some of these results come from one statement about several compounds together. Bridge positions count the residues as written; N and C are the ends. Square brackets hold non-standard residues; d marks the D form. d2Nal = N[C@H](Cc1ccc2ccccc2c1)C(=O)O; Nle = CCCC[C@H](N)C(=O)O
Legend:
[1] = target: T1, MC3R (Mus musculus, UniProt P33033); test: MC3R agonist feeding assays (food intake, body weight) in WT mice; type: in vivo; settings: single peripheral injection; for stimulation of food intake: ad libitum fed mice
T1 construct: from tissue; host or cells: living mice (C57/BL6J background), central nervous system / hypothalamus
Protocol: Clozapine-N-Oxide (CNO) was purchased from Enzo Life Sciences. On the day of experiments fresh stock CNO (1 mg/0.1 ml) was prepared in water. CNO was administered via i.p. injections (200 ul Saline; 1 mg/kg). […] (5 ug; 500 nl DMSO).
Behavioral assays were performed on ad libitum fed mice. Mice were single caged for at least one week prior to starting feeding assays. Feeding assays were performed during the light period.
For peripheral administration of MC3R agonist compounds, mice were first habituated to vehicle injections (i.p.; saline in 10% DMSO; 200 ul) for 2-4 consecutive days. Following habituation and consecutive days of stable food intake in response to vehicle injections, agonist compounds were administered (i.p.; 10 mg/kg; saline in 10% DMSO). Food intake was measured following drug or vehicle administration by carefully removing food from the food hopper and weighing on a scale. Cages were changed daily during acute feeding assays to prevent spillage of food from the food hopper.
For central administration of MC3R agonist compounds we first administered vehicle injections (500 nl DMSO) for 2-4 consecutive days to habituate mice to handling and injection. […] Body weight was measured daily immediately prior to injections.

The chains behind the UniProt entries cited, without tags or fusion partners. Where a name states a change or a piece, a line headed by the entry shows the natural chain unless it says otherwise.
UniProt P33033: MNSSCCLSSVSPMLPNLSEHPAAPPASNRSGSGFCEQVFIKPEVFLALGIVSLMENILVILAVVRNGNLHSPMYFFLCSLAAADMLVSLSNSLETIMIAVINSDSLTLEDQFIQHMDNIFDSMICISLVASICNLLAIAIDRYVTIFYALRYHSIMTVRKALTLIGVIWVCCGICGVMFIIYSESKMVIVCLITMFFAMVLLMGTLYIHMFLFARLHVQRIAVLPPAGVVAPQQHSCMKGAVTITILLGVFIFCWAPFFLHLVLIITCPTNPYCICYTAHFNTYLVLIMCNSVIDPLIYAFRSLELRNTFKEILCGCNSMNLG

[2] = test system: WT mice; test: Liraglutide administration to WT mice; type: in vivo; settings: 0.2 mg/kg, i.p., vs saline
[3] = test system: MC3R TB/TB mice
[4] = target: T1, MC3R; test: Co-administration of MC3R antagonist and liraglutide; type: in vivo, mice; settings: liraglutide s.c. 0.2 mg/kg; C11 5 ug i.c.v.

In the case of “Ac-[Nle]DPP[d2Nal]RWK-NH2 (lactam 2-8) [PG990]”, the “duration of effects on food intake” value [1] is reported as 6 to 8 h and the “stimulation of food intake” value [1] is reported as “up to 50%”.

With “[Ac6c-His-DPhe-Arg-Trp-Asp]-NH2 (FRWD; Ac6c-His N-terminal; amide; printed: Phe-Arg-Trp-Asp) [FMMC-5, MC3R peptide agonist]” the “duration of effects on food intake” value [1] was 6 to 8 h and the “stimulation of food intake” value [1] was “up to 50%”.

With `CCCCCCCCCCCCCCCC(=O)N[C@@H](CCC(=O)NCCCC[C@H](NC(=O)[C@H](C)NC(=O)[C@H](C)NC(=O)[C@H](CCC(N)=O)NC(=O)CNC(=O)[C@H](CCC(=O)O)NC(=O)[C@H](CC(C)C)NC(=O)[C@H](Cc1ccc(O)cc1)NC(=O)[C@H](CO)NC(=O)[C@H](CO)NC(=O)[C@@H](NC(=O)[C@H](CC(=O)O)NC(=O)[C@H](CO)NC(=O)[C@@H](NC(=O)[C@H](Cc1ccccc1)NC(=O)[C@@H](NC(=O)CNC(=O)[C@H](CCC(=O)O)NC(=O)[C@H](C)NC(=O)[C@@H](N)Cc1cnc[nH]1)[C@@H](C)O)[C@@H](C)O)C(C)C)C(=O)N[C@@H](CCC(=O)O)C(=O)N[C@@H](Cc1ccccc1)C(=O)N[C@H](C(=O)N[C@@H](C)C(=O)N[C@@H](Cc1c[nH]c2ccccc12)C(=O)N[C@@H](CC(C)C)C(=O)N[C@H](C(=O)N[C@@H](CCCNC(=N)N)C(=O)NCC(=O)N[C@@H](CCCNC(=N)N)C(=O)NCC(=O)O)C(C)C)[C@@H](C)CC)C(=O)O` [liraglutide] the “Cumulative food intake during treatment” value [2] was “Food intake was reduced during liraglutide treatment”, the “Cumulative food intake during treatment” value ([3]; 0.2 mg/kg, i.p., once daily days 1 to five, MC3R TB/TB mice, vs saline) was “significantly reduced food intake during treatment” and the “body weight following cessation of liraglutide treatment, MC3R KO vs WT” value ([3]; once daily liraglutide, listed as Liraglutide) was “lowering of setpoint”. For the same compound, the “24-hour change in body weight, single agent” value [4] was “reduced body weight” and the “Change in food intake relative to vehicle treatment, single agent” value [4] was “reduced food intake relative to vehicle treatment”.

Reference: patent US20220313789A1, “TARGETING MELANOCORTIN 3 RECEPTOR FOR TREATMENT/PREVENTION OF EATING, METABOLISM, AND/OR EMOTIONAL DISORDERS” (The Regents of the University of Michigan, priority 2019, published 2022)
